Measurements: article PMC7615804
Residue numbers refer to the chain shown, from its start. No constants are given. Whether binding was seen depends on the method and setting. Some entries that bind do so weakly or less than the wild type.

The chains behind the UniProt entries cited, without tags or fusion partners. Where a name states a change or a piece, a line headed by the entry shows the natural chain unless it says otherwise. A line that says so, or that is headed by a name, gives the form on record, which may keep a tag or linker.
UniProt Q9NZ32: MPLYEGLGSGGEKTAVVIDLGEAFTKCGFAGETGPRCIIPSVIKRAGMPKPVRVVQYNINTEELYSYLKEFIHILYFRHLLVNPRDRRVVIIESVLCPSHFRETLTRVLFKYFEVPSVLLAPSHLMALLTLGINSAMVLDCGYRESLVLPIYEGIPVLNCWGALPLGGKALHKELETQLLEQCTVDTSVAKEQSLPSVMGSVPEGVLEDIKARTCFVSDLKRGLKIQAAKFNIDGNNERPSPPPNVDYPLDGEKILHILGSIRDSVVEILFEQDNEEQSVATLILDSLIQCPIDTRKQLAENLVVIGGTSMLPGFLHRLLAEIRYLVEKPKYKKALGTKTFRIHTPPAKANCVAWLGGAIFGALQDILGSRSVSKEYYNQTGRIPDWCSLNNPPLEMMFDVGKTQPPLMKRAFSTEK
human Arf6 (12-175_Q67L) (P62330, form named): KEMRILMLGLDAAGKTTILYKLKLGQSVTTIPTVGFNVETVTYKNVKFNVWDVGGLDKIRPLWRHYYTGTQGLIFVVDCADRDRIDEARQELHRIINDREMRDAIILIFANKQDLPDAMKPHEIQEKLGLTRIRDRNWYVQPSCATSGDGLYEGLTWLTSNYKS

Key:
Assay in all cases: pull-down; pull-downs with mouse JIP3 186-505 constructs, Arf6 and the recombinant pointed end complex (Fig. S3E); purified recombinant proteins; which protein was held on the resin is not told in the text shown; both purified
[1] = target: T1, mouse JIP3 186-505_L383A/E386A (mouse) (UniProt Q9ESN9)
T1 sequence: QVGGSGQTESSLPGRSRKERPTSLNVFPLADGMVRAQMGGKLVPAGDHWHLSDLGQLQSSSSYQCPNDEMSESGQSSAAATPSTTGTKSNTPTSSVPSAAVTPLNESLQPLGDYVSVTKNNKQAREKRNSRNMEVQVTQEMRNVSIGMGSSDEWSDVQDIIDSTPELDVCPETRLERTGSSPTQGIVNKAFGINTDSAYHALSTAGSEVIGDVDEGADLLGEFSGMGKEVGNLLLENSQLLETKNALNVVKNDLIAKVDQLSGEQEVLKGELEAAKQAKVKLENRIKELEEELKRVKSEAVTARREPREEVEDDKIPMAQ

[2] = target: T2, mouse JIP3 186-505_L439P (mouse) (UniProt Q9ESN9)
T2 sequence: T1 sequence with A198L, A201E, L254P

[3] = target: T3, mouse JIP3^185-505 (JIP3 residues 186-505) (mouse) (UniProt Q9ESN9)
T3 sequence: T1 sequence with A198L, A201E

binding [1] | binding [2] | binding [3] | Substance
no binding | binds | binds | dynactin pointed end complex (Arp11, p62, p27 and p25 with C-terminal 6xHis) (from UniProt Q9NZ32 1-417; Q9UJW0 1-460; O00399 1-190; Q9BTE1 1-182)
 | no binding |  | human Arf6 (12-175_Q67L) (from UniProt P62330 12-175) (domain or fragment)
